Paper PMC5419078
No constants are given. Whether binding was seen depends on the method and setting.

Protein sequences, listed by entry. Tags and fused reporters are not part of them. Residues count along the entry.
UniProt P20333, residues 23-257: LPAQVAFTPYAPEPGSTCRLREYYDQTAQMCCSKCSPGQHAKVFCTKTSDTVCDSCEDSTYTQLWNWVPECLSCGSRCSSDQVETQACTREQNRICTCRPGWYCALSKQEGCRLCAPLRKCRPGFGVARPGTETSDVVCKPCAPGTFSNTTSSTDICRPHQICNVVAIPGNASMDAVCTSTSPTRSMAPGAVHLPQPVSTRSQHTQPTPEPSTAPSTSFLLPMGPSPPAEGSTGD

Target: Alexa Fluor 488-labeled etanercept (human) (UniProt P20333)
Assay: AUC; FDS-SV, 25 nM Alexa Fluor 488-labeled antagonist with 0–25 nM TNF in PBS with 0.1 mg/mL lysozyme, incubated at 20°C for 2 hours, 42,000 rpm; both purified

binding: no binding (tested: 25 nM)
Substance: Alexa Fluor 488-labeled etanercept (from UniProt P20333 23-257) (Fc fusion)
